# Measurements: patent publication USRE30451E, “Novel process for producing antibiotics bleomycin” (priority 1969, dated 1980)
# Tested on: Ehrlich ascites carcinoma cells
# Conditions: higher = less toxic and more effective
row,Compound,LD50 /ED50 Index
1,"Cc1c(N)nc(C(CC(N)=O)NCC(N)C(N)=O)nc1C(=O)NC(C(=O)NC(C)C(O)C(C)C(=O)NC(C(=O)NCCc1nc(-c2nc(C(=O)NCCCNCCCN3CCCC3)cs2)cs1)C(C)O)C(OC1OC(CO)C(O)C(O)C1OC1OC(CO)C(O)C(OC(N)=O)C1O)c1cnc[nH]1 (stereo not shown) [Compound 29, 3-(3-pyrrolidinopropyl)-aminopropylamino-bleomycin]",62
2,"Cc1c(N)nc(C(CC(N)=O)NCC(N)C(N)=O)nc1C(=O)NC(C(=O)NC(C)C(O)C(C)C(=O)NC(C(=O)NCCc1nc(-c2nc(C(=O)NCCCNCCCN3CCCCC3)cs2)cs1)C(C)O)C(OC1OC(CO)C(O)C(O)C1OC1OC(CO)C(O)C(OC(N)=O)C1O)c1cnc[nH]1 (stereo not shown) [Compound 30, 3-(3-piperidinopropyl)-aminopropylamino-bleomycin]",17
3,"Cc1c(N)nc(C(CC(N)=O)NCC(N)C(N)=O)nc1C(=O)NC(C(=O)NC(C)C(O)C(C)C(=O)NC(C(=O)NCCc1nc(-c2nc(C(=O)NCCCNCCCN3CCOCC3)cs2)cs1)C(C)O)C(OC1OC(CO)C(O)C(O)C1OC1OC(CO)C(O)C(OC(N)=O)C1O)c1cnc[nH]1 (stereo not shown) [Compound 31, 3-(3-morpholinopropyl)-aminopropylamino-bleomycin]",74
4,"Cc1c(N)nc(C(CC(N)=O)NCC(N)C(N)=O)nc1C(=O)NC(C(=O)NC(C)C(O)C(C)C(=O)NC(C(=O)NCCc1nc(-c2nc(C(=O)NCCCNCCCO)cs2)cs1)C(C)O)C(OC1OC(CO)C(O)C(O)C1OC1OC(CO)C(O)C(OC(N)=O)C1O)c1cnc[nH]1 (stereo not shown) [Compound 32, 3-(3-hydroxypropyl)-aminopropylamino-bleomycin]",30
5,"COCCCNCCCNC(=O)c1csc(-c2csc(CCNC(=O)C(NC(=O)C(C)C(O)C(C)NC(=O)C(NC(=O)c3nc(C(CC(N)=O)NCC(N)C(N)=O)nc(N)c3C)C(OC3OC(CO)C(O)C(O)C3OC3OC(CO)C(O)C(OC(N)=O)C3O)c3cnc[nH]3)C(C)O)n2)n1 (stereo not shown) [Compound 33, 3-(3-methoxypropyl)-aminopropylaminobleomycin]",39
6,"Cc1c(N)nc(C(CC(N)=O)NCC(N)C(N)=O)nc1C(=O)NC(C(=O)NC(C)C(O)C(C)C(=O)NC(C(=O)NCCc1nc(-c2nc(C(=O)NCCCNC(C)c3ccccc3)cs2)cs1)C(C)O)C(OC1OC(CO)C(O)C(O)C1OC1OC(CO)C(O)C(OC(N)=O)C1O)c1cnc[nH]1 (stereo not shown) [Compound 35, 3-(1-phenylethyl)-aminopropyl-amino-bleomycin]",59
7,"Cc1c(N)nc(C(CC(N)=O)NCC(N)C(N)=O)nc1C(=O)NC(C(=O)NC(C)C(O)C(C)C(=O)NC(C(=O)NCCc1nc(-c2nc(C(=O)NCCCNC3CCCCC3)cs2)cs1)C(C)O)C(OC1OC(CO)C(O)C(O)C1OC1OC(CO)C(O)C(OC(N)=O)C1O)c1cnc[nH]1 (stereo not shown) [Compound 38, 3-cyclohexylaminopropylamino-bleomycin]",22
8,"Cc1c(N)nc(C(CC(N)=O)NCC(N)C(N)=O)nc1C(=O)NC(C(=O)NC(C)C(O)C(C)C(=O)NC(C(=O)NCCc1nc(-c2nc(C(=O)NCCCNCCCNC3CCCCC3)cs2)cs1)C(C)O)C(OC1OC(CO)C(O)C(O)C1OC1OC(CO)C(O)C(OC(N)=O)C1O)c1cnc[nH]1 (stereo not shown) [Compound 39, 3-(3-cyclohexylaminopropyl)-aminopropylamino bleomycin]",58
9,"Cc1c(N)nc(C(CC(N)=O)NCC(N)C(N)=O)nc1C(=O)NC(C(=O)NC(C)C(O)C(C)C(=O)NC(C(=O)NCCc1nc(-c2nc(C(=O)NCC3CCNCC3)cs2)cs1)C(C)O)C(OC1OC(CO)C(O)C(O)C1OC1OC(CO)C(O)C(OC(N)=O)C1O)c1cnc[nH]1 (stereo not shown) [Compound 41, 4-piperidylmethylamino-bleomycin]",6
10,"Cc1c(N)nc(C(CC(N)=O)NCC(N)C(N)=O)nc1C(=O)NC(C(=O)NC(C)C(O)C(C)C(=O)NC(C(=O)NCCc1nc(-c2nc(C(=O)NCCc3cnc[nH]3)cs2)cs1)C(C)O)C(OC1OC(CO)C(O)C(O)C1OC1OC(CO)C(O)C(OC(N)=O)C1O)c1cnc[nH]1 (stereo not shown) [Compound 42, 2-(4-imidazolyl)-ethylamino-bleomycin]",6
11,"Cc1c(N)nc(C(CC(N)=O)NCC(N)C(N)=O)nc1C(=O)NC(C(=O)NC(C)C(O)C(C)C(=O)NC(C(=O)NCCc1nc(-c2nc(C(=O)NCCCNCCCCCCN)cs2)cs1)C(C)O)C(OC1OC(CO)C(O)C(O)C1OC1OC(CO)C(O)C(OC(N)=O)C1O)c1cnc[nH]1 (stereo not shown) [Compound 43, 3-(6-aminohexyl)-aminopropylamino-bleomycin]",44
12,"Cc1c(N)nc(C(CC(N)=O)NCC(N)C(N)=O)nc1C(=O)NC(C(=O)NC(C)C(O)C(C)C(=O)NC(C(=O)NCCc1nc(-c2nc(C(=O)NCCCNCCc3cccnc3)cs2)cs1)C(C)O)C(OC1OC(CO)C(O)C(O)C1OC1OC(CO)C(O)C(OC(N)=O)C1O)c1cnc[nH]1 (stereo not drawn) [Compound 44, 3-[2-(β-pyridyl)-ethyl]-aminopropylamino-bleomycin]",49
13,"COCCNCCCNC(=O)c1csc(-c2csc(CCNC(=O)C(NC(=O)C(C)C(O)C(C)NC(=O)C(NC(=O)c3nc(C(CC(N)=O)NCC(N)C(N)=O)nc(N)c3C)C(OC3OC(CO)C(O)C(O)C3OC3OC(CO)C(O)C(OC(N)=O)C3O)c3cnc[nH]3)C(C)O)n2)n1 (stereo not shown) [Compound 45, 3-(2-methoxyethyl)-aminopropylamino-bleomycin]",24
14,"COCCC(C)NCCCNC(=O)c1csc(-c2csc(CCNC(=O)C(NC(=O)C(C)C(O)C(C)NC(=O)C(NC(=O)c3nc(C(CC(N)=O)NCC(N)C(N)=O)nc(N)c3C)C(OC3OC(CO)C(O)C(O)C3OC3OC(CO)C(O)C(OC(N)=O)C3O)c3cnc[nH]3)C(C)O)n2)n1 (stereo not shown) [Compound 46, 3-(1-methyl-3-methoxypropyl)-aminopropylamino-bleomycin]",24
15,"Cc1c(N)nc(C(CC(N)=O)NCC(N)C(N)=O)nc1C(=O)NC(C(=O)NC(C)C(O)C(C)C(=O)NC(C(=O)NCCc1nc(-c2nc(C(=O)NCCCNC3CCCCC3O)cs2)cs1)C(C)O)C(OC1OC(CO)C(O)C(O)C1OC1OC(CO)C(O)C(OC(N)=O)C1O)c1cnc[nH]1 (stereo not shown) [Compound 47, 3-(2-hydroxycyclohexyl)-aminopropylamino-bleomycin]",12
16,"Cc1c(N)nc(C(CC(N)=O)NCC(N)C(N)=O)nc1C(=O)NC(C(=O)NC(C)C(O)C(C)C(=O)NC(C(=O)NCCc1nc(-c2nc(C(=O)NCCCNCCCN)cs2)cs1)C(C)O)C(OC1OC(CO)C(O)C(O)C1OC1OC(CO)C(O)C(OC(N)=O)C1O)c1cnc[nH]1 (stereo not shown) [Compound 48, 3-(aminopropyl)-aminopropylamino-bleomycin]",45
